Experimental data: paper PMC3805608
Results are given in words; binding and its absence hold for the method and conditions named. Binding seen in cells or lysates may run through a third protein. Some entries that bind do so weakly or less than the wild type. Tags and fused reporters may be left off the sequences shown.

Sequences of proteins named here, by UniProt entry; tags and fusion partners are left off. Residues count along the entry.
UniProt P18537, residues 19-581: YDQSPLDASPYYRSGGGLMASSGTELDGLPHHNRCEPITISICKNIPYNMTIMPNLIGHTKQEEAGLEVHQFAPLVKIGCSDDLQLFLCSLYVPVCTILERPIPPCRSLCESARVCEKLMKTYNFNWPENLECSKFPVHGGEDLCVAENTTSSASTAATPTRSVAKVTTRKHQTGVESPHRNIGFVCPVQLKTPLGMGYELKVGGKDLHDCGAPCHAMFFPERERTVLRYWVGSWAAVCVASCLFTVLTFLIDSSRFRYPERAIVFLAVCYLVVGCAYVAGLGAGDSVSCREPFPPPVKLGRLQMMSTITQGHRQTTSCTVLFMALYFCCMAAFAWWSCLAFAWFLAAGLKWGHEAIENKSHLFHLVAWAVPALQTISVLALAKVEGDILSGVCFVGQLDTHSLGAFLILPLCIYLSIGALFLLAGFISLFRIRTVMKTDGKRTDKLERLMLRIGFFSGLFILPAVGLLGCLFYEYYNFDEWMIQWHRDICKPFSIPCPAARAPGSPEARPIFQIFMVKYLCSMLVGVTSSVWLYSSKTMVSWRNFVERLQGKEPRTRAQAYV

Target: T1, His6-Rab5 (UniProt Q9V3I2)
T1 sequence: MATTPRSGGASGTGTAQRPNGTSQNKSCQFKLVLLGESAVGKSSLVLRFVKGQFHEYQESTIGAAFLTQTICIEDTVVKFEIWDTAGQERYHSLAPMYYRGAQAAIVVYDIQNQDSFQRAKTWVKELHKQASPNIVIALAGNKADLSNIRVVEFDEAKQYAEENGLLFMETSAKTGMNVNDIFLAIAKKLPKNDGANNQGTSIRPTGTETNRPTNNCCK
Assay: pull-down; MBP-Kermit, His6-CG5036 or His6-Rab5 linked on CNBr-activated Sepharose; MBP-Fz from bacterial membranes solubilized with 10 mM CHAPS (30 min, 4°C); 3 h at 4°C, Western blot; only the target purified

In the case of “MBP-Fz (from UniProt P18537 19-581) (receptor)”, the binding was “binds”.
